Laboratory results: PubChem BioAssay AID1508597 (Cure First, 2020)

Purpose: 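Genes whose silencing sensitises or protects ovarian cancer cells against rucaparib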 (primary screen)
Cells: human ovarian carcinoma lines grown from tumours: OCI-P5x (papillary serous) and OCI-C5x (clear cell)
Knock-down reagent: siRNA pool against human genes, 1.25 pmol siRNA per well
Duration: 72 h or 96 h, depending on the cell culture
Conditions: rucaparib 20 µM (about IC30) or vehicle, present until read-out
Rucaparib or vehicle: Vehicle
Cell line: OCI-C5x (clear cell)
Read-out: 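ATP luminescence measured at 72 or 96 h according to the culture, then normalised and expressed as percent viability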
Scale: viability, normalised: higher = more viable cells remaining
Active means: 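a well counts as a hit if its normalised viability is under 80 percent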
Calls: active = viability under 80%; inactive = viability 80% or more
This is an unselected part of the about 2,100 reagents, in one setting of the screen. 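Calls flag viability under 80% in either arm, not effects specific to rucaparib; the reference for percent is not stated.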 A reagent listed more than once was tested more than once; the source does not tell the runs apart. Not given: the 100% reference.

target gene | technical replicate | viability, normalised (%) | Outcome
PARP1 | 1 | 48 | active
PARP1 | 1 | 42.8 | active
PARP1 | 2 | 53.2 | active
PARP1 | 2 | 41.6 | active
PARP1 | 3 | 55.6 | active
PARP1 | 3 | 54.9 | active
ROCK2 | 1 | 61.7 | active
ROCK2 | 2 | 61.1 | active
ROCK2 | 3 | 52 | active
PLCB4 | 1 | 60.5 | active
PLCB4 | 2 | 46.7 | active
PLCB4 | 3 | 54.1 | active
KAT7 | 1 | 48.3 | active
KAT7 | 2 | 46.6 | active
KAT7 | 3 | 29.7 | active
CBX7 | 1 | 29.2 | active
CBX7 | 2 | 20 | active
CBX7 | 3 | 29.8 | active
VRK1 | 1 | 59.4 | active
VRK1 | 2 | 47.4 | active
VRK1 | 3 | 64.8 | active
USB1 | 1 | 57.8 | active
USB1 | 2 | 53.7 | active
USB1 | 3 | 51.4 | active
ENPP5 | 1 | 36.4 | active
ENPP5 | 2 | 33.1 | active
ENPP5 | 3 | 32.1 | active
RIC8A | 1 | 40.5 | active
RIC8A | 2 | 37.7 | active
RIC8A | 3 | 50.2 | active
MORF4L1 | 1 | 60.4 | active
MORF4L1 | 2 | 56.4 | active
MORF4L1 | 3 | 65.7 | active
ACHE | 1 | 39.5 | active
ACHE | 2 | 35.3 | active
ACHE | 3 | 50 | active
SP110 | 1 | 41.2 | active
SP110 | 2 | 38.9 | active
SP110 | 3 | 24.7 | active

Not a retest: entries from further up.
target gene | technical replicate | viability, normalised (%) | Outcome
PLCB4 | 3 | 54.1 | active
KAT7 | 1 | 48.3 | active
KAT7 | 2 | 46.6 | active
